Read-outs that look alike come from different tables or passages of the source. Some of these results come from one statement about several compounds together. For some assays here: At least one structure is not confirmed: it was looked up by name or label, or the drawing left a doubt.
What was measured:
Format in all cases: in vivo
Details in all cases: 6 days
[1] = tested on: corn planthopper (Peregrinus maidis (Ashmead))
Protocol: (§1) Test compounds were formulated using a solution containing 10% acetone, […] and 300 ppm Activator 909 non-ionic surfactant (Loveland Products, Loveland, Colorado, USA). The formulated compounds were applied in 1 mL of liquid through an atomizer nozzle positioned 1.27 cm (0.5 inches) above the top of each test unit. Test compounds were sprayed at the rates indicated, and each test was replicated three times.
For evaluating control of corn planthopper (Peregrinus maidis (Ashmead)) through contact and/or systemic means, the test unit consisted of a small open container with a 3-4-day-old corn (maize) plant inside. White sand was added to the top of the soil prior to application of the test compound.
Test compounds were formulated and sprayed at 250 and/or 50 ppm and/or 10 ppm. After spraying of the formulated test compound, the test units were allowed to dry for 1 h before they were post-infested with ˜15-20 nymphs (18-to-21-day-old). A black, screened cap was placed on the top of each test unit, and the test units were held for 6 days in a growth chamber at 22-24° C. and 50-70% relative humidity. Each test unit was then visually assessed for insect mortality.

[2] = tested on: green peach aphid (Myzus persicae (Sulzer)); test: Test D: control of green peach aphid on radish plant, spray
Protocol: as §1
For evaluating control of green peach aphid (Myzus persicae (Sulzer)) through contact and/or systemic means, the test unit consisted of a small open container with a 12-15-day-old radish plant inside. This was pre-infested by placing on a leaf of the test plant 30-40 aphids on a piece of leaf excised from a culture plant (cut-leaf method). The aphids moved onto the test plant as the leaf piece desiccated. After pre-infestation, the soil of the test unit was covered with a layer of sand.
[…] After spraying of the formulated test compound, each test unit was allowed to dry for 1 hour and then a black, screened cap was placed on top. The test units were held for 6 days in a growth chamber at 19-21° C. and 50-70% relative humidity. Each test unit was then visually assessed for insect mortality.

[3] = tested on: cotton melon aphid (Aphis gossypii (Glover))
Protocol: as §1
[…] This was pre-infested with 30-40 insects on a piece of leaf according to the cut-leaf method, and the soil of the test unit was covered with a layer of sand.
Test compounds were formulated and sprayed at 250 and/or 50 ppm. After spraying, the test units were maintained in a growth chamber for 6 days at 19° C. and 70% relative humidity. Each test unit was then visually assessed for insect mortality.

Structure (SMILES): Cc1noc(-c2cncc(Cl)c2C(F)c2ccc([S+]([O-])C(F)(F)F)cc2)n1 (mixture of isomers) [Compound 104]
- mortality ([1]; sprayed at 50 ppm): at least 80%
- mortality ([1]; sprayed at 250 ppm): at least 80%
- mortality ([2]; sprayed at 50 ppm): at least 80%
- mortality ([2]; sprayed at 250 ppm): at least 80%
- mortality ([3]; sprayed at 50 ppm): at least 80%
- mortality ([3]; sprayed at 250 ppm): at least 80%

Structure (SMILES): Cn1ccnc1-c1cncc(F)c1C(F)c1ccc(OC(F)(F)F)cc1 (racemic) [Compound 25]
- mortality ([1]; sprayed at 50 ppm): at least 80%
- mortality ([1]; sprayed at 250 ppm): at least 80%
- mortality ([2]; sprayed at 250 ppm): at least 80%

Structure (SMILES): Cc1nnc(-c2cncc(F)c2C(F)c2ccc(OC(F)(F)F)cc2)o1 (racemic) [Compound 31]
- mortality ([1]; sprayed at 50 ppm): at least 80%
- mortality ([1]; sprayed at 250 ppm): at least 80%

Structure (SMILES): COC(c1ccc(C(F)c2c(F)cncc2-n2nccn2)cc1)(C(F)(F)F)C(F)(F)F (racemic) [Compound 43]
- mortality ([1]; sprayed at 10 ppm): at least 80%
- mortality ([1]; sprayed at 50 ppm): at least 80%

Structure (SMILES): CC(C)n1cc(-c2cncc(F)c2C(F)c2ccc(OC(F)(F)F)cc2)cn1 (racemic) [Compound 56]
- mortality ([1]; sprayed at 50 ppm): at least 80%
- mortality ([3]; sprayed at 250 ppm): at least 80%

Structure (SMILES): CC(C)n1ccc(-c2cncc(F)c2C(F)c2ccc(OC(F)(F)F)cc2)n1 (racemic) [Compound 62]
- mortality ([1]; sprayed at 10 ppm): at least 80%
- mortality ([1]; sprayed at 50 ppm): at least 80%
- mortality ([3]; sprayed at 250 ppm): at least 80%

Structure (SMILES): Fc1cncc(-c2ccn(CC(F)(F)F)n2)c1C(F)c1ccc(OC(F)(F)F)cc1 (racemic) [Compound 63]
- mortality ([1]; sprayed at 50 ppm): at least 80%

Structure (SMILES): COC(c1ccc(SC(F)(F)F)cc1)c1c(F)cncc1-c1noc(C(F)(F)F)n1 (racemic) [Compound 81]
- mortality ([1]; sprayed at 250 ppm): at least 80%
- mortality ([2]; sprayed at 250 ppm): at least 80%

Structure (SMILES): COC(c1ccc(SC(F)(F)F)cc1)c1c(F)cncc1-c1nc(=S)o[nH]1 (racemic) [Compound 84]
- mortality ([3]; sprayed at 250 ppm): at least 80%

Structure (SMILES): FC(c1ccc2c(c1)OC(F)(F)O2)c1c(Br)cncc1-n1ccnn1 (centres unmarked) [Compound 148]
- mortality ([3]; sprayed at 50 ppm): at least 80%
- mortality ([3]; sprayed at 250 ppm): at least 80%

Structure (SMILES): CCOC(c1ccc(OC(F)(F)F)cc1)c1c(F)cncc1-n1cccn1 (centres unmarked) [Compound 154]
- mortality ([3]; sprayed at 50 ppm): at least 80%
- mortality ([3]; sprayed at 250 ppm): at least 80%

Structure (SMILES): COC(c1ccc(C(F)(F)F)nc1)c1c(F)cncc1-n1cccn1 (centres unmarked) [Compound 157]
- mortality ([1]; sprayed at 50 ppm): at least 80%
- mortality ([1]; sprayed at 250 ppm): at least 80%
- mortality ([3]; sprayed at 50 ppm): at least 80%
- mortality ([3]; sprayed at 250 ppm): at least 80%

Structure (SMILES): COC(c1ccc(C(F)(F)F)nc1)c1c(F)cncc1-n1nccn1 (centres unmarked) [Compound 158]
- mortality ([1]; sprayed at 50 ppm): at least 80%
- mortality ([1]; sprayed at 250 ppm): at least 80%
- mortality ([3]; sprayed at 50 ppm): at least 80%
- mortality ([3]; sprayed at 250 ppm): at least 80%

Structure (SMILES): COC(c1cnc(C(F)(F)F)nc1)c1c(F)cncc1-n1cccn1 (centres unmarked) [Compound 160]
- mortality ([3]; sprayed at 50 ppm): at least 80%
- mortality ([3]; sprayed at 250 ppm): at least 80%

Structure (SMILES): COC(c1cnc(C(F)(F)F)nc1)c1c(F)cncc1-n1nccn1 (centres unmarked) [Compound 161]
- mortality ([1]; sprayed at 50 ppm): at least 80%
- mortality ([1]; sprayed at 250 ppm): at least 80%
- mortality ([3]; sprayed at 50 ppm): at least 80%
- mortality ([3]; sprayed at 250 ppm): at least 80%

Structure (SMILES): CC(C)(C)c1ncc(C(F)c2c(Cl)cncc2-n2nccn2)cn1 (centres unmarked) [Compound 170]
- mortality ([1]; sprayed at 50 ppm): at least 80%
- mortality ([1]; sprayed at 250 ppm): at least 80%

Structure (SMILES): Fc1cncc(-n2cccn2)c1C(F)c1ccc(C(F)(F)F)cn1 (centres unmarked) [Compound 171]
- mortality ([3]; sprayed at 50 ppm): at least 80%
- mortality ([3]; sprayed at 250 ppm): at least 80%

Structure (SMILES): COC(c1ccc(C(F)(F)F)cn1)c1c(F)cncc1-n1cccn1 (centres unmarked) [Compound 173]
- mortality ([1]; sprayed at 10 ppm): at least 80%
- mortality ([1]; sprayed at 50 ppm): at least 80%
- mortality ([1]; sprayed at 250 ppm): at least 80%

Structure (SMILES): COC(c1ccc(C(F)(F)F)cn1)c1c(F)cncc1-n1nccn1 (centres unmarked) [Compound 174]
- mortality ([1]; sprayed at 10 ppm): at least 80%
- mortality ([1]; sprayed at 50 ppm): at least 80%
- mortality ([1]; sprayed at 250 ppm): at least 80%
- mortality ([3]; sprayed at 50 ppm): at least 80%
- mortality ([3]; sprayed at 250 ppm): at least 80%

Structure (SMILES): COC(c1ccc(OC(F)(F)F)cc1)c1ncncc1-n1nccn1 (centres unmarked) [Compound 175]
- mortality ([1]; sprayed at 50 ppm): at least 80%
- mortality ([1]; sprayed at 250 ppm): at least 80%
- mortality ([3]; sprayed at 50 ppm): at least 80%
- mortality ([3]; sprayed at 250 ppm): at least 80%

Source: patent publication US12568969B2, “Pyridine compounds for controlling invertebrate pests” (FMC Corporation, priority 2020, dated 2026)
